PubChem BioAssay AID1224831, NIAID | 2016

Assay: 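Confirming genome-wide hits on LPS-triggered TNF-alpha induction with independent siRNA sequences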 (follow-up of hits)
Cell system: human THP-1 B5 monocytic leukaemia cells carrying a TNF promoter luciferase reporter, made macrophage-like with PMA
Reagents: single siRNA against human genes, 50 nM
Time to read-out: about 68 h of knock-down, then 4 h LPS
Conditions: LPS (Salmonella minnesota, TLR-grade) at 10 ng/ml for 4 h; PMA 5 ng/ml present during knock-down
Measurement: 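Firefly to renilla luciferase ratio of a TNF promoter reporter after 4 h LPS, scaled to plate median, turned into robust z-score, averaged over replicates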
Scale: TNF reporter z-score: higher = stronger LPS-induced TNF reporter signal; z-score, median over gene's siRNAs: higher = stronger TNF reporter signal across the gene's siRNAs
Hit rule: 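Two-sided call: reduced or raised TNF reporter signal counts as active once mean z reaches about -1 or below, or about 1.5 or above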
Meaning of the calls: active = changed TNF reporter (either direction); inactive = little change
Shown is an unselected part of about 3,500 reagents tested. Of all reagents, 731 (21%) are marked active. 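Active means either lowered or raised reporter signal; the gene-median score did not drive the per-siRNA calls.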 The numbers tell different reagents against one gene apart.

Target gene	reagent	TNF reporter z-score, replicate mean	z-score, median over gene's siRNAs	outcome
ABHD10	1	0.27	0.15	inactive
ABHD10	2	-0.01	0.15	inactive
ABHD10	3	1.22	0.15	inactive
ABHD10	4	-0.38	0.15	inactive
ABHD10	5	0.28	0.15	inactive
ABHD10	6	0.03	0.15	inactive
MRC1	1	1.76	-0.3	active
MRC1	2	-0.37	-0.3	inactive
MRC1	3	-0.59	-0.3	inactive
MRC1	4	-0.34	-0.3	inactive
MRC1	5	2.95	-0.3	active
MRC1	6	-0.26	-0.3	inactive
MRM3	1	0.21	0.195	inactive
MRM3	2	-1.1	0.195	active
MRM3	3	0.77	0.195	inactive
MRM3	4	-0.6	0.195	inactive
MRM3	5	0.18	0.195	inactive
MRM3	6	1.44	0.195	inactive
RNF121	1	0.27	0.31	inactive
RNF121	2	2.55	0.31	active
RNF121	3	0.35	0.31	inactive
RNF121	4	3.62	0.31	active
RNF121	5	0.27	0.31	inactive
RNF121	6	-0.47	0.31	inactive
CCDC78	1	-0.29	-0.495	inactive
CCDC78	2	-1.52	-0.495	active
CCDC78	3	0.19	-0.495	inactive
CCDC78	4	-0.9	-0.495	inactive
CCDC78	5	-0.7	-0.495	inactive
CCDC78	6	0.16	-0.495	inactive

Laid out differently: 4 of the entries above.
MRM3 #2
- TNF reporter z-score, replicate mean: -1.1
- z-score, median over gene's siRNAs: 0.195
- outcome: active

MRM3 #3
- TNF reporter z-score, replicate mean: 0.77
- z-score, median over gene's siRNAs: 0.195
- outcome: inactive

MRM3 #4
- TNF reporter z-score, replicate mean: -0.6
- z-score, median over gene's siRNAs: 0.195
- outcome: inactive

MRM3 #5
- TNF reporter z-score, replicate mean: 0.18
- z-score, median over gene's siRNAs: 0.195
- outcome: inactive

The listing continues.
Target gene	reagent	TNF reporter z-score, replicate mean	z-score, median over gene's siRNAs	outcome
WDR31	1	-0.2	0.08	inactive
WDR31	2	0.36	0.08	inactive
WDR31	3	-2.47	0.08	active
WDR31	4	0.5	0.08	inactive
WDR31	5	-1.03	0.08	active
WDR31	6	0.8	0.08	inactive
ZNF324	1	-0.84	-0.335	inactive
ZNF324	2	-0.41	-0.335	inactive
ZNF324	3	0.22	-0.335	inactive
ZNF324	4	0.4	-0.335	inactive
ZNF324	5	-0.26	-0.335	inactive
ZNF324	6	-1.88	-0.335	active
SPAG5	1	0.09	0.07	inactive
SPAG5	2	0.73	0.07	inactive
SPAG5	3	-0.05	0.07	inactive
SPAG5	4	0.05	0.07	inactive
SPAG5	5	-0.53	0.07	inactive
SPAG5	6	1.41	0.07	inactive
FDX1	1	-1.26	-0.02	active
FDX1	2	-1.21	-0.02	active
FDX1	3	0.18	-0.02	inactive
FDX1	4	-0.05	-0.02	inactive
FDX1	5	0.24	-0.02	inactive
FDX1	6	0.01	-0.02	inactive
MTA2	1	0.08	-0.27	inactive
MTA2	2	-0.29	-0.27	inactive
MTA2	3	-0.25	-0.27	inactive
MTA2	4	-1.57	-0.27	active
MTA2	5	-1.53	-0.27	active
MTA2	6	1.95	-0.27	active
